Patent publication US10466233B2, “Genetically encoded probe for quantification of lactate and methods for quantifying metabolic rates and lactate transport” (CENTRO DE ESTUDIOS CIENTIFICOS DE VALDIVIA, priority 2012, dated 2019)

Test: Fluorescence ratio (mTFP/Venus) response of purified lactate sensor to lactate in vitro
Type: binding
Experimental: Protein Purification. Plasmid constructs were transformed into E. coli BL21 (DE3). A single colony was inoculated in 100 ml of LB medium with […] ampicillin (without IPTG) and shaken in the dark for 2-3 days. Cells were collected by centrifugation at 5000 rpm (4° C.) for 10 min and disrupted by sonication (Hielscher Ultrasound Technology) in 5 mL of Tris-HCl buffer pH 8.0. A cell-free extract was obtained by centrifugation at 10,000 rpm (4° C.) for 1 hour and filtering of the supernatant (0.45 μm). Proteins were purified using a Nickel resin (His Bin® from Novagen) as recommended by the manufacturer. Eluted proteins were quantified using the Biuret method and stored at −20° C. in 20% glycerol.
Fluorescence Measurements.

## Variant 7: Most responsive FRET lactate sensor: mTFP, full length L1dR from E. coli, no linkers, Venus; SEQ ID NO 7
  lower limit of lactate quantification: 1 µM
  upper limit of lactate quantification: 10 mM
Similar to the most sensitive enzyme-based commercial kit
  sensitivity in vitro: ~50 pmol
